# Measurements as given in patent US6521640B1, “Method for interviewing neuronal death using sulfasalazine” (Neurotech Co., Ltd., priority 2000, dated 2003).
# At least one structure is not confirmed: it was looked up by name or label, or the drawing left a doubt.
# Tested on: cocultures of mouse cortical neurons and glia
# Assay: NMDA-induced neuronal death (LDH efflux) in cortical cell cultures
# Assay type: cell-based
# Details: 5-aminosalicylate up to 1,000 μM
# Procedure: FIG. 2 is a graph plotting a dose-response effect of sulfasalazine against neuronal death 24 hr following a brief exposure to 300 μM NMDA. Cocultures of mouse cortical neurons and glia (DIV 12-14) were exposed to 300 μM NMDA for 10 min, alone or with inclusion of 10-1000 μM sulfasalazine. Neuronal death was analyzed by measuring LDH efflux into the bathing medium 24 hr later, mean ± S.E.M. (n−8−16 cultrues per condition), scaled to the mean LDH value corresponding to the near-complete neuronal death induced by 24 hr exposure to 500 μM NMDA (=100%). Asterisk indicates significant difference from relevant control (NMDA alone), at ρ<0.05 using ANOVA and Student-Neuman-Keuls' test.
# FIG. 3 is a graph plotting neuroprotective effects of sulfasalazine against dose-dependent neurotoxicity by NMDA. Cortical cell cultures were exposed to 30-1000 μM NMDA for 10 min, alone or in the presence of 300 or 1000 μM sulfasalazine. Neuronal death was analyzed by measuring LDH efflux into the bathing medium 24 hr later, mean ± S.E.M. (n=8−16 cultures per condition). […]
# Overall cell injury was assessed microscopically under phase-contrast optics or by measuring amount of lactate dehydrogenase (LDH) released into the bathing medium 24 hr after neurotoxic insults as previously described (Koh and Choi, J Neurosci Methods 20:83-90, 1987). […]
smiles,measurement,value
Nc1ccc(O)c(C(=O)O)c1 [5-aminosalicylate],NMDA neurotoxicity,does not attenuate
